Laboratory results from publication PMC10320870.
Results are given in words; binding and its absence hold for the method and conditions named. In cells and extracts the contact can be indirect. Some binding calls cover weakened binding; strength is not graded here. For some assays here: Where a sequence is shown, tags or fusion partners need not be part of it.

Chains of the proteins cited; added tags and fusions are not shown.
UniProt P18850: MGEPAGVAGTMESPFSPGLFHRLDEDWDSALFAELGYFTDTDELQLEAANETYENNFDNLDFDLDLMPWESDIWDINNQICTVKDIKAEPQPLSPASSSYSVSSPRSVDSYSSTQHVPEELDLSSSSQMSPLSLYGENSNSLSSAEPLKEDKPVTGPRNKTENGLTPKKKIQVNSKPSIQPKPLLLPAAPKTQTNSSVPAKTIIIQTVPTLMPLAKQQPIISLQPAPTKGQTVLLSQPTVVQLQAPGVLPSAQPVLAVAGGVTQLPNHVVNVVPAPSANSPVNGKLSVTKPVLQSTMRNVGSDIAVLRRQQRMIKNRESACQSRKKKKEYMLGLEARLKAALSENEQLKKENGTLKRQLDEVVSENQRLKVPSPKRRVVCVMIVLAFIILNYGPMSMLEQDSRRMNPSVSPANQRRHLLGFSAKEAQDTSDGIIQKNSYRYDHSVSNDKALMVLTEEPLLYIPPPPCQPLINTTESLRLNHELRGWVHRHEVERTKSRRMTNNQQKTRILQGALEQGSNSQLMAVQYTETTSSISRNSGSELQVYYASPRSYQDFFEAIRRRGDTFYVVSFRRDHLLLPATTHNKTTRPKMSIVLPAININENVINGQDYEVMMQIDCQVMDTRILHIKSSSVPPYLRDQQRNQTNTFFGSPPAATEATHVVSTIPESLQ

Key:
[1] = molecular target: T1, protocadherin 20 (PCDH20), endogenous (human (endogenous in Caco-2)) (UniProt Q8N6Y1); assay: co-IP; lysate of Caco-2 cells without any treatment (endogenous proteins); antibody-coupled NHS-activated magnetic beads, overnight at 4 °C; western blot
T1 sequence: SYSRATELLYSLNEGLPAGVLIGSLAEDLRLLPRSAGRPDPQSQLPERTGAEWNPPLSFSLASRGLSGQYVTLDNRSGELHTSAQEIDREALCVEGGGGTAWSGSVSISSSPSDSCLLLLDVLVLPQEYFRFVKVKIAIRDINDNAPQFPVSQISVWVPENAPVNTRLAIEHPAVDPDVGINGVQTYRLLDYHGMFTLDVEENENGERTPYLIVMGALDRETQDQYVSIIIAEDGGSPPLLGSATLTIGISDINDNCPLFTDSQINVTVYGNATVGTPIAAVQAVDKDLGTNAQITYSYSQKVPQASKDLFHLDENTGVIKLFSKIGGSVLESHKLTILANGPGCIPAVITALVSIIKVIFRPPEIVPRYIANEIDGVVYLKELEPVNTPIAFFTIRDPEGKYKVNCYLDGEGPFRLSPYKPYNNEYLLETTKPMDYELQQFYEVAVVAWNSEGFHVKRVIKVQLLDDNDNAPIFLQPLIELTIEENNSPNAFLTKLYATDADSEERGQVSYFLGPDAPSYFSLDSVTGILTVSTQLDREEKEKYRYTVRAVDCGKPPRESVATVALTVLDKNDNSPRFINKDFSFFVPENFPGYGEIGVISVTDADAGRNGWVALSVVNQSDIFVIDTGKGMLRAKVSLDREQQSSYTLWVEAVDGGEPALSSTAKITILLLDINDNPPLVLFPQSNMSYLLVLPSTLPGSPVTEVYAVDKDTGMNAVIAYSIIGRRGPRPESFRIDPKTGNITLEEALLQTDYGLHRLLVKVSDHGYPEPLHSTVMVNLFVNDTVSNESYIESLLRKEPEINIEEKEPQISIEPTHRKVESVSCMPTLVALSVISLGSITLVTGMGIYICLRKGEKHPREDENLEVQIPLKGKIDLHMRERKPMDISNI

[2] = molecular target: T2, flag-tagged PCDH20 (protocadherin 20) (UniProt Q8N6Y1); assay: co-IP; lysate (750 ug protein) of flag-tagged PCDH20-overexpressing Caco-2 cells; antibodies against Flag or ATF6 (controls rabbit IgG, mouse IgG1 kappa) coupled to NHS-activated magnetic beads, overnight at 4 °C; western blot
T2 sequence: T1 sequence

activating transcription factor 6 (ATF6) (from UniProt P18850 1-670)
binding [1]: binds | binding [2]: binds
